Measurements reported in PubChem BioAssay AID504744 (Drosophila RNAi Screening Center, 2011).

- Aim: 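Identify dsRNAs that increase or decrease phospho-dAkt after insulin treatment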 (primary screen)
- Cell system: Drosophila Kc167 cells
- Reagents: long dsRNA against Drosophila genes, 250 ng dsRNA per well of a 384-well plate
- Time to read-out: 3 days of knock-down, then overnight serum-free starvation before stimulation
- Treatment: bovine insulin at 387 nM for 10 minutes after 12 h without serum
- Detection: 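Per-well phospho-dAkt level from an in-cell fluorescent antibody stain, divided by a DNA-dye signal; log2 residuals turned into z-scores that take cell number into account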
- Active means: 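Hit in the insulin screen when the two-replicate mean z-score is more extreme than plus or minus 2.5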
The deposit covers about 23,000 reagents; below is a random part of those with a known target gene and a result. Of all reagents, 98 (0.43%) got an active call. 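Only hit calls are given; the phospho-dAkt signals, z-scores and hit direction were not deposited.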 Names joined by + are all predicted targets of the reagent. No sequences are given here.

gene | amplicon | Call
CG32590 | DRSC19594 | inactive
brv2 (brivido-2) | DRSC10226 | inactive
Zip88E (Zinc/iron regulated transporter-related protein 88E) | DRSC15562 | inactive
Art6 (Arginine methyltransferase 6) | DRSC16583 | inactive
CG40045 | DRSC21232 | inactive
CG31792 | DRSC02604 | inactive
Acph-1 (Acid phosphatase 1) | DRSC14103 | inactive
Usf | DRSC18129 | inactive
CG15547 | DRSC15085 | inactive
CG10713 | DRSC09786 | inactive
Atg5 (Autophagy-related 5) | DRSC18112 | inactive
tx (retired record) | DRSC16931 | inactive
pav (pavarotti) | DRSC08730 | inactive
CG15014 | DRSC08468 | inactive
CG33259 | DRSC10854 | inactive
Or74a (Odorant receptor 74a) | DRSC11245 | inactive
cert (ceramide transfer protein) | DRSC09674 | inactive
CG3014 | DRSC15458 | inactive
CG10140 | DRSC09704 | inactive
tbrd-2 | DRSC07020 | inactive
His3.3A (Histone H3.3A) | DRSC03343 | inactive
Samtor (S-adenosylmethionine sensor upstream of TORC1) | DRSC04390 | inactive
CG5151 | DRSC10487 | inactive
Lsp1alpha (Larval serum protein 1 alpha) | DRSC20258 | inactive
HP1e (Heterochromatin Protein 1e) | DRSC16379 | inactive
sowah (sosondowah) | DRSC09186 | inactive
sowah (sosondowah) | DRSC09758 | inactive
CG5860 | DRSC15896 | inactive
Tdrd3 (Tudor domain containing 3) | DRSC10016 | inactive
CG3430 | DRSC02713 | inactive
CG33468 | DRSC22940 | inactive
CG4000 | DRSC15535 | inactive
CG4000 | DRSC21547 | inactive
Cpr11B (Cuticular protein 11B) | DRSC19859 | inactive
eca (eclair) | DRSC22290 | inactive
armi (armitage) | DRSC08193 | inactive
udt (undicht) | DRSC14214 | inactive
Vap33 (VAMP-associated protein 33kDa) | DRSC18384 | inactive
Gasp | DRSC12349 | inactive
gsb-n (gooseberry-neuro) | DRSC04021 | inactive
gsb-n (gooseberry-neuro) | DRSC04693 | inactive
Ras64B (Ras oncogene at 64B) | DRSC08689 | inactive
Zpr1 | DRSC18432 | inactive
bru1 (bruno 1) | DRSC01234 | inactive
bru1 (bruno 1) | DRSC01236 | inactive
bru1 (bruno 1) | DRSC01237 | inactive
bru1 (bruno 1) | DRSC01238 | inactive
bru1 (bruno 1) | DRSC03485 | inactive
CG3566 | DRSC18311 | inactive
CG32487 | DRSC21745 | inactive
erm (earmuff) | DRSC00700 | inactive
CG30284 | DRSC22150 | inactive
CG42809 + CG42810 | DRSC02532 | inactive
CG42809 + CG42810 | DRSC02533 | inactive
Msr-110 | DRSC11227 | inactive
Fibp | DRSC11031 | inactive
CG33461 | DRSC22892 | inactive
CG8945 | DRSC20129 | inactive
CG8945 | DRSC20130 | inactive
CG13226 | DRSC06346 | inactive
Alh (Alhambra) | DRSC12447 | inactive
Alh (Alhambra) | DRSC12487 | inactive
Alh (Alhambra) | DRSC12488 | inactive
Syx8 (Syntaxin 8) | DRSC10402 | inactive
Syx8 (Syntaxin 8) | DRSC22498 | inactive
CG6125 | DRSC15970 | inactive
Jon65Ai (Jonah 65Ai) | DRSC09731 | inactive
Cyp6t2Psi (pseudo) | DRSC01840 | inactive
cyr (cypher) | DRSC18017 | inactive
cyr (cypher) | DRSC18018 | inactive
cyr (cypher) | DRSC18021 | inactive
CG17715 | DRSC11950 | inactive
mRRF1 (mitochondrial ribosome recycling factor 1) | DRSC10421 | inactive
CG42238 | DRSC03180 | inactive
PIG-Q (Phosphatidylinositol glycan anchor biosynthesis class Q) | DRSC19138 | inactive
CG5174 | DRSC06920 | inactive
CG31788 | DRSC01630 | inactive
sbb (scribbler) | DRSC05723 | inactive
sbb (scribbler) | DRSC07676 | inactive
CG18473 | DRSC16381 | inactive
CG32104 | DRSC10127 | inactive
CG32104 | DRSC10128 | inactive
CG11997 | DRSC14464 | inactive
CG13297 | DRSC09971 | inactive
zen (zerknullt) | DRSC12632 | inactive
CycJ (Cyclin J) | DRSC08653 | inactive
CG32199 | DRSC09990 | inactive
NPF (neuropeptide F) | DRSC17019 | inactive
CG7889 | DRSC20066 | inactive
Rlb1 | DRSC16826 | inactive
TwdlT (TweedleT) | DRSC16677 | inactive
TwdlT (TweedleT) | DRSC21540 | inactive
CG3955 | DRSC06859 | inactive
CG32259 | DRSC08082 | inactive
CG4781 | DRSC04488 | inactive
CG6059 | DRSC15958 | inactive
sob | DRSC00838 | inactive
CG13558 | DRSC04196 | inactive
Su(var)2-10 (Suppressor of variegation 2-10) | DRSC07721 | inactive
rogdi | DRSC10906 | inactive

23 of these entries in another layout:
gene	amplicon	Call
CG31792	DRSC02604	inactive
Acph-1 (Acid phosphatase 1)	DRSC14103	inactive
Usf	DRSC18129	inactive
CG15547	DRSC15085	inactive
CG10713	DRSC09786	inactive
Atg5 (Autophagy-related 5)	DRSC18112	inactive
tx (retired record)	DRSC16931	inactive
pav (pavarotti)	DRSC08730	inactive
CG15014	DRSC08468	inactive
CG33259	DRSC10854	inactive
Or74a (Odorant receptor 74a)	DRSC11245	inactive
cert (ceramide transfer protein)	DRSC09674	inactive
CG3014	DRSC15458	inactive
CG10140	DRSC09704	inactive
tbrd-2	DRSC07020	inactive
His3.3A (Histone H3.3A)	DRSC03343	inactive
Samtor (S-adenosylmethionine sensor upstream of TORC1)	DRSC04390	inactive
CG5151	DRSC10487	inactive
Lsp1alpha (Larval serum protein 1 alpha)	DRSC20258	inactive
HP1e (Heterochromatin Protein 1e)	DRSC16379	inactive
sowah (sosondowah)	DRSC09186	inactive
sowah (sosondowah)	DRSC09758	inactive
CG5860	DRSC15896	inactive

Further records:
gene | amplicon | Call
Karl | DRSC19883 | inactive
tld (tolloid) | DRSC17084 | inactive
Dip-C (Dipeptidase C) | DRSC15855 | inactive
CG17127 | DRSC02581 | inactive
CG9062 | DRSC07327 | inactive
Ir94g (Ionotropic receptor 94g) | DRSC15231 | inactive
CG9588 | DRSC16504 | inactive
CG42588 | DRSC09820 | inactive
CG42588 | DRSC22121 | inactive
CG33298 | DRSC02210 | inactive
CG33298 | DRSC02672 | inactive
Ir75b (Ionotropic receptor 75b) | DRSC10189 | inactive
Oseg4 (Outer segment 4) | DRSC08548 | inactive
CG8664 | DRSC20116 | inactive
nom (numerous disordered muscles) | DRSC16389 | inactive
dock (dreadlocks) | DRSC00812 | inactive
Camta (Calmodulin-binding transcription activator) | DRSC06440 | inactive
Camta (Calmodulin-binding transcription activator) | DRSC06441 | inactive
Camta (Calmodulin-binding transcription activator) | DRSC07272 | inactive
mRpS18C (mitochondrial ribosomal protein S18C) | DRSC16538 | inactive
CG3618 | DRSC11746 | inactive
levy | DRSC04289 | inactive
Pak3 | DRSC15017 | inactive
cocoon | DRSC10916 | inactive
CG5969 | DRSC11789 | inactive
abs (abstrakt) | DRSC12372 | inactive
CG7130 | DRSC11797 | inactive
Dlg5 (Discs large 5) | DRSC02964 | inactive
prel (preli-like) | DRSC07271 | inactive
CG15922 | DRSC15128 | inactive
Fs(2)Ket (Female sterile (2) Ketel) | DRSC03328 | inactive
CG11123 | DRSC06040 | inactive
CG14282 | DRSC14763 | inactive
Taf1 (TBP-associated factor 1) | DRSC12607 | inactive
CG34409 | DRSC14577 | inactive
CG34409 | DRSC21667 | inactive
CG4151 | DRSC18351 | inactive
Msh6 | DRSC10759 | inactive
Ir51b (Ionotropic receptor 51b) | DRSC05540 | inactive
CG10000 | DRSC14170 | inactive
CG9953 | DRSC11106 | inactive
yellow-d | DRSC04589 | inactive
Lrt (Leucine-rich tendon-specific protein) | DRSC06045 | active
CG17637 | DRSC11740 | inactive
pnut (peanut) | DRSC07666 | inactive
SMSr (Sphingomyelin synthase related) | DRSC10998 | inactive
SMSr (Sphingomyelin synthase related) | DRSC10999 | inactive
CG8117 | DRSC20082 | inactive
CG11710 | DRSC20485 | inactive
Vps28 (Vacuolar protein sorting 28) | DRSC06168 | inactive
narya | DRSC19439 | inactive
CG34382 | DRSC08999 | inactive
CG34382 | DRSC10166 | inactive
CG34382 | DRSC10167 | inactive
CG11768 | DRSC14377 | inactive
CG42457 (retired record) + cpo | DRSC13273 | inactive
CG42457 (retired record) + cpo | DRSC14503 | inactive
CG42457 (retired record) + cpo | DRSC15327 | inactive
CG42457 (retired record) + cpo | DRSC16926 | inactive
